# The list shows a part of the results.
# B1: PP2A1 (Arabidopsis thaliana) (protein)
# chain: MFRNQDSKYLIPVQKEAPPVTTLPMKASTVKSPHNCEAILRDADPPISLSSVNLSEQLRSGVFLKPKKQIKYWVDERNSNCFMLFAKNLSITWSDDVNYWTWFTEKESPNENVEAVGLKNVCWLDITGKFDTRNLTPGIVYEVVFKVKLEDPAYGWDTPVNLKLVLPNGKEKPQEKKVSLRELPRYKWVDVRVGEFVPEKSAAGEITFSMYEHAAGVWKKGLSLKGVAIRPKQHHHHHH
# How the values were obtained:
# Assay in all cases: glycan array binding signal (z-score within array); higher = stronger binding
# Conditions in all cases: glycan notation: IUPAC condensed, linker removed
# [1] = molecular target: Fuc(a1-2)[GalNAc(a1-3)]Gal(b1-4)GlcNAc
# In short: (§1)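 Glycan array data were curated from 3228 arrays in the Consortium for Functional Glycomics database and kept only where the protein sequence was available. Glycan names were converted to IUPAC-condensed notation, and columns mapping to the same glycan were averaged. The binding signal is a within-array Z-score, averaged across arrays of the same protein sequence at different concentrations or buffers and across linkers. Negative Z-scores can be read as non-binding.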
# [2] = molecular target: Fuc(a1-2)[GalNAc(a1-3)]Gal(b1-4)GlcNAc(b1-2)Man(a1-3)[GalNAc(a1-3)[Fuc(a1-2)]Gal(b1-4)GlcNAc(b1-2)Man(a1-6)]Man(b1-4)GlcNAc(b1-4)GlcNAc
# In short: as §1
# [3] = molecular target: Fuc(a1-2)[GalNAc(a1-3)]Gal(b1-4)GlcNAc(b1-3)Gal(b1-4)GlcNAc
# In short: as §1
# [4] = molecular target: Fuc(a1-2)[GalNAc(a1-3)]Gal(b1-4)GlcNAc(b1-3)Gal(b1-4)GlcNAc(b1-3)Gal(b1-4)GlcNAc
# In short: as §1
# [5] = molecular target: Fuc(a1-2)[GalNAc(a1-3)]Gal(b1-4)[Fuc(a1-3)]GlcNAc
# In short: as §1
# [6] = molecular target: Fuc(a1-2)[GalNAc(a1-4)]Gal(b1-4)GlcNAc
# In short: as §1
# [7] = molecular target: Fuc(a1-2)[GalNAc(b1-3)]Gal
# In short: as §1
# Fuc(a1-3)GlcNAc = molecular target: Fuc(a1-3)GlcNAc
# In short: as §1
# [8] = molecular target: Fuc(a1-3)[Gal(b1-4)]Glc6S
# In short: as §1
# [9] = molecular target: Fuc(a1-3)[Gal(b1-4)]GlcNAc
# In short: as §1
# [10] = molecular target: Fuc(a1-3)[Gal(b1-4)]GlcNAc(b1-2)Man(a1-3)[Fuc(a1-3)[Gal(b1-4)]GlcNAc(b1-2)Man(a1-6)]Man(b1-4)GlcNAc(b1-4)GlcNAc
# In short: as §1
# [11] = molecular target: Fuc(a1-3)[Gal(b1-4)]GlcNAc(b1-2)Man(a1-6)[Gal(b1-4)GlcNAc(b1-2)Man(a1-3)]Man(b1-4)GlcNAc(b1-4)GlcNAc
# In short: as §1
# [12] = molecular target: Fuc(a1-3)[Gal(b1-4)]GlcNAc(b1-3)Gal(b1-3)[Fuc(a1-4)]GlcNAc
# In short: as §1
# [13] = molecular target: Fuc(a1-3)[Gal(b1-4)]GlcNAc(b1-4)Gal(b1-4)[Fuc(a1-3)]GlcNAc
# In short: as §1
# [14] = molecular target: Fuc(a1-3)[Gal(b1-4)]GlcNAc(b1-4)Gal(b1-4)[Fuc(a1-3)]GlcNAc(b1-4)Gal(b1-4)[Fuc(a1-3)]GlcNAc
# In short: as §1
# [15] = molecular target: Fuc(a1-3)[Gal(b1-4)]GlcNAc6S
# In short: as §1
# [16] = molecular target: Fuc(a1-3)[Gal3S(b1-4)]Glc6S
# In short: as §1
# [17] = molecular target: Fuc(a1-3)[Gal3S(b1-4)]GlcNAc
# In short: as §1
# [18] = molecular target: Fuc(a1-3)[Gal3S(b1-4)]GlcNAc6S
# In short: as §1
# [19] = molecular target: Fuc(a1-3)[GalNAc(b1-4)]GlcNAc
# In short: as §1
# [20] = molecular target: Fuc(a1-3)[Neu5Ac(a2-3)]Gal(b1-4)GlcNAc(b1-3)GalNAc
# In short: as §1
# Fuc(a1-4)GlcNAc = molecular target: Fuc(a1-4)GlcNAc
# In short: as §1
# Fuc(b1-3)GlcNAc = molecular target: Fuc(b1-3)GlcNAc
# In short: as §1
# Gal(a1-2)Gal = molecular target: Gal(a1-2)Gal
# In short: as §1
# Gal(a1-3)Gal = molecular target: Gal(a1-3)Gal
# In short: as §1
# Gal(a1-3)Gal(b1-3)GlcNAc = molecular target: Gal(a1-3)Gal(b1-3)GlcNAc
# In short: as §1
# Gal(a1-3)Gal(b1-4)Glc = molecular target: Gal(a1-3)Gal(b1-4)Glc
# In short: as §1
# Gal(a1-3)Gal(b1-4)GlcNAc = molecular target: Gal(a1-3)Gal(b1-4)GlcNAc
# In short: as §1
# [21] = molecular target: Gal(a1-3)Gal(b1-4)[Fuc(a1-3)]GlcNAc
# In short: as §1
# [22] = molecular target: Gal(a1-3)Gal(b1-4)[Fuc(a1-3)]GlcNAc(b1-2)Man(a1-3)[Gal(a1-3)Gal(b1-4)[Fuc(a1-3)]GlcNAc(b1-2)Man(a1-6)]Man(b1-4)GlcNAc(b1-4)GlcNAc
# In short: as §1
# Gal(a1-3)GalNAc = molecular target: Gal(a1-3)GalNAc
# In short: as §1
# [23] = molecular target: Gal(a1-3)[Gal(a1-4)]Gal(b1-4)GlcNAc
# In short: as §1
# Gal(a1-4)Gal(b1-4)Glc = molecular target: Gal(a1-4)Gal(b1-4)Glc
# In short: as §1
# Gal(a1-4)Gal(b1-4)GlcNAc = molecular target: Gal(a1-4)Gal(b1-4)GlcNAc
# In short: as §1
# [24] = molecular target: Gal(a1-4)Gal(b1-4)GlcNAc(b1-3)Gal(b1-4)Glc
# In short: as §1
# Gal(a1-4)GlcNAc = molecular target: Gal(a1-4)GlcNAc
# In short: as §1
# Gal(a1-6)Glc = molecular target: Gal(a1-6)Glc
# In short: as §1
# Gal(b1-2)Gal = molecular target: Gal(b1-2)Gal
# In short: as §1
binder,measurement,setting,value
B1,glycan array binding signal (z-score),[1],-0.411
same,glycan array binding signal (z-score),[2],0.573
same,glycan array binding signal (z-score),[3],-0.018
same,glycan array binding signal (z-score),[4],0.059
same,glycan array binding signal (z-score),[5],-0.253
same,glycan array binding signal (z-score),[6],-0.398
same,glycan array binding signal (z-score),[7],-0.409
same,glycan array binding signal (z-score),Fuc(a1-3)GlcNAc,-0.591
same,glycan array binding signal (z-score),[8],-0.117
same,glycan array binding signal (z-score),[9],-0.005
same,glycan array binding signal (z-score),[10],-0.241
same,glycan array binding signal (z-score),[11],-1.1
same,glycan array binding signal (z-score),[12],-0.241
same,glycan array binding signal (z-score),[13],-0.014
same,glycan array binding signal (z-score),[14],-0.187
same,glycan array binding signal (z-score),[15],-0.097
same,glycan array binding signal (z-score),[16],0.302
same,glycan array binding signal (z-score),[17],-0.017
same,glycan array binding signal (z-score),[18],0.583
same,glycan array binding signal (z-score),[19],-0.418
same,glycan array binding signal (z-score),[20],-0.286
same,glycan array binding signal (z-score),Fuc(a1-4)GlcNAc,-0.047
same,glycan array binding signal (z-score),Fuc(b1-3)GlcNAc,-0.251
same,glycan array binding signal (z-score),Gal(a1-2)Gal,-0.291
same,glycan array binding signal (z-score),Gal(a1-3)Gal,-0.282
same,glycan array binding signal (z-score),Gal(a1-3)Gal(b1-3)GlcNAc,-0.586
same,glycan array binding signal (z-score),Gal(a1-3)Gal(b1-4)Glc,-0.621
same,glycan array binding signal (z-score),Gal(a1-3)Gal(b1-4)GlcNAc,-0.365
same,glycan array binding signal (z-score),[21],-0.34
same,glycan array binding signal (z-score),[22],-0.011
same,glycan array binding signal (z-score),Gal(a1-3)GalNAc,-0.032
same,glycan array binding signal (z-score),[23],0.221
same,glycan array binding signal (z-score),Gal(a1-4)Gal(b1-4)Glc,-0.181
same,glycan array binding signal (z-score),Gal(a1-4)Gal(b1-4)GlcNAc,-0.01
same,glycan array binding signal (z-score),[24],-0.305
same,glycan array binding signal (z-score),Gal(a1-4)GlcNAc,-0.224
same,glycan array binding signal (z-score),Gal(a1-6)Glc,0.289
same,glycan array binding signal (z-score),Gal(b1-2)Gal,-0.215

# Another view of some results above:
binder	measurement	setting	value
B1	glycan array binding signal (z-score)	[1]	-0.411
same	glycan array binding signal (z-score)	Gal(b1-2)Gal	-0.215

# From the supplement of paper PMC8728848
